This passage reports binding results from paper doi:10.1101/2025.04.11.648407.

By UniProt entry, the sequences of proteins in these tests, tags left out. Residues count along the entry.
UniProt P53618: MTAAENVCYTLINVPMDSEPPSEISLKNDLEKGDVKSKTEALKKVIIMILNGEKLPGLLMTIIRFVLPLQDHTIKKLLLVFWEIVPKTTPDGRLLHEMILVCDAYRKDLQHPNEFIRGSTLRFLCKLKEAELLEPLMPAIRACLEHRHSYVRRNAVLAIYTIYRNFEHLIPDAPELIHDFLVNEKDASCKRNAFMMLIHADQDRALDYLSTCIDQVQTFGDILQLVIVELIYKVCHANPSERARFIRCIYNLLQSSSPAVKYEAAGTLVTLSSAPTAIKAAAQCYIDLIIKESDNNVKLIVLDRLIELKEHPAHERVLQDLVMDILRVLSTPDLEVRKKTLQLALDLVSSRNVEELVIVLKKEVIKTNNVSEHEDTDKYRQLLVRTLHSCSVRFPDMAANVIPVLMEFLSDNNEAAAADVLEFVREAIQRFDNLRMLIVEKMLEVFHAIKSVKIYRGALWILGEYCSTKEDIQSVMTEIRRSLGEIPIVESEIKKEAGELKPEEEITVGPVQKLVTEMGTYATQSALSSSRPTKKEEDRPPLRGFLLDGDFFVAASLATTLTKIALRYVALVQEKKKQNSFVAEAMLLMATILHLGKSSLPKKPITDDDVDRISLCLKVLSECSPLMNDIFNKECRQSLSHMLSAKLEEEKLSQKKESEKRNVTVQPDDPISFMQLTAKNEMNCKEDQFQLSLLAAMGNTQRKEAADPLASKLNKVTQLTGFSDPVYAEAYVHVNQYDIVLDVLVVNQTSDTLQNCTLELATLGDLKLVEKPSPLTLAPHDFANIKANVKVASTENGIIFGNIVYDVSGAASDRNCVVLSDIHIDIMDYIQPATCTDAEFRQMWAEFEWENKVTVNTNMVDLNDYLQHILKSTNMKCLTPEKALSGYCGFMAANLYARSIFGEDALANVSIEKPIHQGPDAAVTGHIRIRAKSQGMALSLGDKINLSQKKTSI
UniProt Q9Y678: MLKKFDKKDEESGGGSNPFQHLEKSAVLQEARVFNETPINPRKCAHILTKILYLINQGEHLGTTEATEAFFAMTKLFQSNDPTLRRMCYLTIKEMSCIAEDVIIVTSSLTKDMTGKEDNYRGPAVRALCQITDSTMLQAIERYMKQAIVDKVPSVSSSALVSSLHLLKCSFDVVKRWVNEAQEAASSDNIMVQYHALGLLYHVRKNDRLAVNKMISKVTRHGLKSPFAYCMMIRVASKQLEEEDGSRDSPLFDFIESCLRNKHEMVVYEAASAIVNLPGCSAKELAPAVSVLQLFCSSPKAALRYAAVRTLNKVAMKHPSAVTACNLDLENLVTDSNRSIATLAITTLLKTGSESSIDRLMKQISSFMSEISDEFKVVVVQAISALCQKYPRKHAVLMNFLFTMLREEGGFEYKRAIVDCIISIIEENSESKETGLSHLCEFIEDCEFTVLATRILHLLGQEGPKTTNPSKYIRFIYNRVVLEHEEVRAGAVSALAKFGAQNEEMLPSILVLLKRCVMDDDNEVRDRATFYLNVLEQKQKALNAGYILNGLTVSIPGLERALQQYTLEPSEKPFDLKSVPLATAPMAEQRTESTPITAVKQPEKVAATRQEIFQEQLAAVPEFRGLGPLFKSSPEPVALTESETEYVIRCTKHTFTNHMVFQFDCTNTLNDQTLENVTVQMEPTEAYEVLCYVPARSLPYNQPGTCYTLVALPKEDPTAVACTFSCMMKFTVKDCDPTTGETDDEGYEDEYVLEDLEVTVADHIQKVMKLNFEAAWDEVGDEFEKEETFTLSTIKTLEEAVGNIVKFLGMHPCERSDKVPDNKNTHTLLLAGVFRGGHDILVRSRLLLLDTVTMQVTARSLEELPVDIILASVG
UniProt P04406: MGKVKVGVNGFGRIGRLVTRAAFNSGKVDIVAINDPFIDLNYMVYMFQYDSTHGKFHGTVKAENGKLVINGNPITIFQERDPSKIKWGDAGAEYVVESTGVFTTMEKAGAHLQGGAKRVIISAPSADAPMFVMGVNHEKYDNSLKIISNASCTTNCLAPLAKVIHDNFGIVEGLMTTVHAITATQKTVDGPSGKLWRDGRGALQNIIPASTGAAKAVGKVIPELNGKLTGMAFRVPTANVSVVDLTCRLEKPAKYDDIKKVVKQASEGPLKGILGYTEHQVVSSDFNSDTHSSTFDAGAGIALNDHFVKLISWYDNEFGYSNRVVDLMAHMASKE
UniProt P11717, residues 41-2491: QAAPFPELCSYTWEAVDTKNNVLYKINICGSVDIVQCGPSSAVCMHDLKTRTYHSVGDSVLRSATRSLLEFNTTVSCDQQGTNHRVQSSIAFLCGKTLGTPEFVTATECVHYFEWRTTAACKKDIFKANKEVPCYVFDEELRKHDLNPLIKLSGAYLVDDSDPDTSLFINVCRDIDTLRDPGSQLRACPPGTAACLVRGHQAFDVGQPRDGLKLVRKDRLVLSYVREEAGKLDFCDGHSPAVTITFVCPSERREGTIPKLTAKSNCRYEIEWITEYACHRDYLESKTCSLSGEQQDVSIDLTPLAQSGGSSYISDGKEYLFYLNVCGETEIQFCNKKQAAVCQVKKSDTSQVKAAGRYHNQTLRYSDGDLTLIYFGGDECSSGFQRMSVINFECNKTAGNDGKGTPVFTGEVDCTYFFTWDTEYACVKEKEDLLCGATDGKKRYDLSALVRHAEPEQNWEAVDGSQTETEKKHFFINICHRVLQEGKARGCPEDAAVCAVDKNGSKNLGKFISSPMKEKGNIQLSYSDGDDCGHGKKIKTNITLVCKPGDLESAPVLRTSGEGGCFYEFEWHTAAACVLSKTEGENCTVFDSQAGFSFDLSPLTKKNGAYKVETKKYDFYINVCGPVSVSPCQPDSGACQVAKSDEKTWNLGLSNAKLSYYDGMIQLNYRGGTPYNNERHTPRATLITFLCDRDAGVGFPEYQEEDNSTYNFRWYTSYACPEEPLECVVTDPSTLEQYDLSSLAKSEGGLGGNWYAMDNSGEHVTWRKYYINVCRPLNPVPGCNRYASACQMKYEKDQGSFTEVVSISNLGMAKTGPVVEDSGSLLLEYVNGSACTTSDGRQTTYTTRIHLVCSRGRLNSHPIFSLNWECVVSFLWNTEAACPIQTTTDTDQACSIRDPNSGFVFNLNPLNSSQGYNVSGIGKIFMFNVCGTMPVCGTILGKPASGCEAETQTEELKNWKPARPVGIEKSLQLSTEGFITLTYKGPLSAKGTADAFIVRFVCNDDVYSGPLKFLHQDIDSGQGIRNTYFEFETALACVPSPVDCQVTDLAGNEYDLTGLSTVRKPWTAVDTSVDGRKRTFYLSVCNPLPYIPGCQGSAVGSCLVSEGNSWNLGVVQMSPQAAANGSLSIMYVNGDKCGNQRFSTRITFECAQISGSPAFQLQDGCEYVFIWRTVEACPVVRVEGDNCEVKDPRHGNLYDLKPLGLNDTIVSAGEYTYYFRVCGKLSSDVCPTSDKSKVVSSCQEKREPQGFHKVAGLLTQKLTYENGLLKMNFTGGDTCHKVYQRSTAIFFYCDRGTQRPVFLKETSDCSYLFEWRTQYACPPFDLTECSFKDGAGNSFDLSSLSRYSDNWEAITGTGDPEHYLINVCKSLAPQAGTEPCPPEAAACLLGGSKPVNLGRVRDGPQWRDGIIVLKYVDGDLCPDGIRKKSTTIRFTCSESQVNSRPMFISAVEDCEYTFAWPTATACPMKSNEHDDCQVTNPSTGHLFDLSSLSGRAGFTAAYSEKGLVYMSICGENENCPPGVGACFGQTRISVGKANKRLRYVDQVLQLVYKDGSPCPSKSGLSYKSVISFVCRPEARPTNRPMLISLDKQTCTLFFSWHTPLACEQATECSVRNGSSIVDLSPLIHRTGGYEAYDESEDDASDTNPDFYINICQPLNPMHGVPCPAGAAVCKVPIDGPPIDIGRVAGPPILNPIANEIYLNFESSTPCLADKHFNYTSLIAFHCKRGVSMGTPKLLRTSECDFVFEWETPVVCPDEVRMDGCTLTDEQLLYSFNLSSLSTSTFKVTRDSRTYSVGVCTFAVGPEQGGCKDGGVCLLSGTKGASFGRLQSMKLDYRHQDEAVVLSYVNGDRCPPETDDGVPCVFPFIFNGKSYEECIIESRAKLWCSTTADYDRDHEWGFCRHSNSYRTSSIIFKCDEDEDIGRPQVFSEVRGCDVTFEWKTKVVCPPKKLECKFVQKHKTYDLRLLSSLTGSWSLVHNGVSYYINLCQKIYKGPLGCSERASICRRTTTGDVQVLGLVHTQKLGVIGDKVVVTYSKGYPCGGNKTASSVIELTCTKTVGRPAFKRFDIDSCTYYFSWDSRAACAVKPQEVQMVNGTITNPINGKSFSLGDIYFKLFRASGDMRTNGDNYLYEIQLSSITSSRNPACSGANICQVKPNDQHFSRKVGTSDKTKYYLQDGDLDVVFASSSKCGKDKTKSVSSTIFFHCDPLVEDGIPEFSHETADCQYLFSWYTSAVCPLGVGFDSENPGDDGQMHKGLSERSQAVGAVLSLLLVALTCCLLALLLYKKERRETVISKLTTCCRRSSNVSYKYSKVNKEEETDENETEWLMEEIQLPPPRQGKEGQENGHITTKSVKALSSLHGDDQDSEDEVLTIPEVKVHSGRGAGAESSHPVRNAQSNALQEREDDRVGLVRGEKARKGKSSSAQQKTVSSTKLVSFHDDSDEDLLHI
UniProt Q15465, residues 24-462: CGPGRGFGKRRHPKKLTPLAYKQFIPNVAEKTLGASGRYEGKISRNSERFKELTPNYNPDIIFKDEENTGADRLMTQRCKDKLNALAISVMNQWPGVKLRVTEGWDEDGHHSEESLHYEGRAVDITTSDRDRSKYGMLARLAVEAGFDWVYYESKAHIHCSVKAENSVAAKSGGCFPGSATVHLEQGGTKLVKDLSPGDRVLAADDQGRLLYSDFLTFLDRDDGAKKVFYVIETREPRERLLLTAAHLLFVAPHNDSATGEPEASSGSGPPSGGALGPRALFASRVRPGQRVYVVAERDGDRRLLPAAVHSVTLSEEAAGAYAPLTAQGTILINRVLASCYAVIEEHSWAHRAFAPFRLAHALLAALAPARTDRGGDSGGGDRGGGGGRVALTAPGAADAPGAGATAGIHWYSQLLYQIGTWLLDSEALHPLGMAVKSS

Positions count from the first letter of the chain named. Where two headings read alike, the source gives them in different places. Results are given in words; binding and its absence hold for the method and conditions named. In cells and extracts the contact can be indirect. Some binding calls cover weakened binding; strength is not graded here. For some of these results: Tags and fused reporters may be left off the sequences shown.

Assay [1] concerns the target T1, LEPROTL1-HA (human) (UniProt O95214).
T1 sequence: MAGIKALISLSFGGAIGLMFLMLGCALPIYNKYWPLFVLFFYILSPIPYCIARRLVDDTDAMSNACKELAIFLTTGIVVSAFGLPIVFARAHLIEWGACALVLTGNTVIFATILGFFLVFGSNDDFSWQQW
Description: co-IP.

Assay [2] concerns the target T2, LEPROTL1 R90H (human) (UniProt O95214).
T2 sequence: T1 sequence with R90H
Description: co-IP.

Assay [3] has as its target T1, LEPROTL1-HA (human). Description: co-IP. This is another data set of the same source.
The target in assay [4] is T2, LEPROTL1 R90H (human). Description: co-IP. This is another data set of the same source.
Assay [5] deals with T1, LEPROTL1-HA (human). Description: co-IP. The source holds these as a separate data set.
Assay [6] deals with T3, GST-tagged COPD (human) (UniProt P48444).
T3 sequence: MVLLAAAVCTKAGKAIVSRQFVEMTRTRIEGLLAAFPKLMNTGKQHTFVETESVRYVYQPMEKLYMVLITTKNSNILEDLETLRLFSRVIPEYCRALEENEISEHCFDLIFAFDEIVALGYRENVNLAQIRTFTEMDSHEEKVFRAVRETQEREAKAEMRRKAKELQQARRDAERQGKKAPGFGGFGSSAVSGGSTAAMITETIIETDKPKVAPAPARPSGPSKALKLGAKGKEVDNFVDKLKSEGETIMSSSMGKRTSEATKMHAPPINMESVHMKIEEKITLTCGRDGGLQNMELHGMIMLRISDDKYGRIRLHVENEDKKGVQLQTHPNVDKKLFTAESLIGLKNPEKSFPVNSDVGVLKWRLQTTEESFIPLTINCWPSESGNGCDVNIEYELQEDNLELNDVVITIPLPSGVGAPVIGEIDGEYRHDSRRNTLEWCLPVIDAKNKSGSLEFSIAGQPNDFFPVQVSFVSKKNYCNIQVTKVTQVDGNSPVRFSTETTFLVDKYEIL
Description: pull-down.

The target of assay [7] is T3, GST-tagged COPD (human). Description: pull-down. The source holds these as a separate data set.
Assay [8] concerns the target T3, GST-tagged COPD (human). Description: pull-down. The source holds these as a separate data set.
Assay [9] deals with T3, GST-tagged COPD (human). Description: pull-down. The source holds these as a separate data set.
Assay [10] deals with T1, LEPROTL1-HA (human). Description: co-IP. The source holds these as a separate data set.

Turning to COPB1 (from UniProt P53618 1-953), in the assay with LEPROTL1-HA (human) [1], the binding result is on record as “binds”.

On to COPG1 (from UniProt Q9Y678 1-874), for which the binding result in the assay with LEPROTL1-HA (human) [1] is reported as “binds”.

On to GAPDH (from UniProt P04406 1-335), for which the binding entry with LEPROTL1-HA (human) [1] is listed as “no binding”.

On to “EGFR-FLAG (from UniProt P00533 25-1210) (receptor)”, for which the binding entry in the assay with LEPROTL1-HA (human) [1] is “binds”.

“IGF2R (from UniProt P11717 41-2491) (receptor)”: the binding entry with LEPROTL1-HA (human) [1] was “binds”.

As for SHH (from UniProt Q15465 24-462), the binding entry in the assay with LEPROTL1-HA (human) [1] was “no binding”.

For “EGFR (from UniProt P00533 25-1210) (receptor)”, the binding entry with LEPROTL1 R90H (human) [2] is recorded as “binds”; with LEPROTL1-HA (human) [3] it was “binds”; with LEPROTL1-HA (human) [1], “binds”; with LEPROTL1 R90H (human) [4] it was “no binding (condition: at pH 7.2)”; in the assay with LEPROTL1-HA (human) [5], “no binding (condition: at pH 7.2)”.

B1: GOLIM4 (protein, UniProt O00461 1-696)
chain: MGNGMCSRKQKRIFQTLLLLTVVFGFLYGAMLYYELQTQLRKAEAVALKYQQHQESLSAQLQVVYEHRSRLEKSLQKERLEHKKAKEDFLVYKLEAQETLNKGRQDSNSRYSALNVQHQMLKSQHEELKKQHSDLEEEHRKQGEDFSRTFNDHKQKYLQLQQEKEQELSKLKETVYNLREENRQLRKAHQDIHTQLQDVKQQHKNLLSEHEQLVVTLEDHKSALAAAQTQVAEYKQLKDTLNRIPSLRKPDPAEQQNVTQVAHSPQGYNTAREKPTREVQEVSRNNDVWQNHEAVPGRAEDTKLYAPTHKEAEFQAPPEPIQQEVERREPEEHQVEEEHRKALEEEEMEQVGQAEHLEEEHDPSPEEQDREWKEQHEQREAANLLEGHARAEVYPSAKPMIKFQSPYEEQLEQQRLAVQQVEEAQQLREHQEALHQQRLQGHLLRQQEQQQQQVAREMALQRQAELEEGRPQHQEQLRQQAHYDAMDNDIVQGAEDQGIQGEEGAYERDNQHQDEAEGDPGNRHEPREQGPREADPESEADRAAVEDINPADDPNNQGEDEFEEAEQVREENLPDENEEQKQSNQKQENTEVEEHLVMAGNPDQQEDNVDEQYQEEAEEEVQEDLTEEKKRELEHNAEETYGENDENTDDKNNDGEEQEVRDDNRPKGREEHYEEEEEEEEDGAAVAEKSHRRAEM
B1: the binding result in the assay with GST-tagged COPD (human) [6], in the assay with GST-tagged COPD (human) [7], in the assay with GST-tagged COPD (human) [8] and with GST-tagged COPD (human) [9] was “binds” in each case.

B2: B4GALT1 (enzyme, UniProt P15291 1-398)
chain: MRLREPLLSGSAAMPGASLQRACRLLVAVCALHLGVTLVYYLAGRDLSRLPQLVGVSTPLQGGSNSAAAIGQSSGELRTGGARPPPPLGASSQPRPGGDSSPVVDSGPGPASNLTSVPVPHTTALSLPACPEESPLLVGPMLIEFNMPVDLELVAKQNPNVKMGGRYAPRDCVSPHKVAIIIPFRNRQEHLKYWLYYLHPVLQRQQLDYGIYVINQAGDTIFNRAKLLNVGFQEALKDYDYTCFVFSDVDLIPMNDHNAYRCFSQPRHISVAMDKFGFSLPYVQYFGGVSALSKQQFLTINGFPNNYWGWGGEDDDIFNRLVFRGMSISRPNAVVGRCRMIRHSRDKKNEPNPQRFDRIAHTKETMLSDGLNSLTYQVLDVQRYPLYTQITVDIGTPS
As for B2, the binding entry with LEPROTL1-HA (human) [10] is reported as “no binding”.
